Experimental findings from paper PMC10651131 are described below.

The target in assay [1] is T1, serum response factor (SRF), fused to the S10 or S11 GFP fragment (UniProt Q9JM73).
T1 sequence: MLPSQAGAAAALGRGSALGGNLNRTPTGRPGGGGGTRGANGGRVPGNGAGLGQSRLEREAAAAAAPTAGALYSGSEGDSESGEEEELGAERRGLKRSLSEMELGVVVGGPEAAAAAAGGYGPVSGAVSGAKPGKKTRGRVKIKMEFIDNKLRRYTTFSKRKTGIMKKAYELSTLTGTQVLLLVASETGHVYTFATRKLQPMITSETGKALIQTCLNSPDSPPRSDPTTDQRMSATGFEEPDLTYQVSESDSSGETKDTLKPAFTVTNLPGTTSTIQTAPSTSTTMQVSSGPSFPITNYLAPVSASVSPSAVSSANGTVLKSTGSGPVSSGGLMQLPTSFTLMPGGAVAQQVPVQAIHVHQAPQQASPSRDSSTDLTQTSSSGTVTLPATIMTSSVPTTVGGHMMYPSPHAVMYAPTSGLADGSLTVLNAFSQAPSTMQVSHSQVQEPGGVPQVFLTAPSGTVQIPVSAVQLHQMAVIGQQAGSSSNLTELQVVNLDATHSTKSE
Briefly: split reporter; trimolecular fluorescence complementation (TriFC): GFP (S1 to S9) fragment coexpressed with proteins fused to the S10 or S11 GFP fragments in HEK293T cells, epifluorescence 8 hours after transfection; in some panels an untagged third protein coexpressed.

For assay [2], the target named is T2, tagged SRF for coimmunoprecipitation (UniProt Q9JM73).
T2 sequence: T1 sequence
In words: co-IP; tagged proteins coexpressed two at a time in HEK293T; lysed 24 hours after transfection in Triton X-100 lysis buffer (20 mM Hepes pH 7.5, 150 mM NaCl, 0.5% Triton X-100, 10% glycerol, 1 mM EDTA); pull-down with an HA antibody; blots with HA, Myc or GST antibodies.

Substrate in assay [3]: B cell lymphoma 6 (Bcl6), fused to the S10 or S11 GFP fragment (UniProt P41183)
Briefly: split reporter; trimolecular fluorescence complementation (TriFC): GFP (S1 to S9) fragment coexpressed with proteins fused to the S10 or S11 GFP fragments in HEK293T cells, epifluorescence 8 hours after transfection; in some panels an untagged third protein coexpressed.

Results are given in words; binding and its absence hold for the method and conditions named. In cells and extracts the contact can be indirect. Some binding calls cover weakened binding; strength is not graded here. Tags and fused reporters may be left off the sequences shown.

For the molecule “Bcl6, untagged, overexpressed as third protein in the TriFC assay (from UniProt P41183 1-707)”, the binding entry in assay [1] was “binds”. Take “tagged Bcl6 for coimmunoprecipitation (from UniProt P41183 1-707)”: in assay [2], the binding result is on record as “binds”.

B1: serum response factor (SRF), fused to the S10 or S11 GFP fragment (protein, UniProt Q9JM73 1-504)
chain: T1 sequence
Take B1: the binding entry in assay [1] is “binds”.

B2: SRF, untagged, overexpressed as third protein in the TriFC assay (protein, UniProt Q9JM73 1-504)
chain: T1 sequence
In the case of B2, in assay [3], the binding entry is on record as “binds”.

B3: megakaryoblastic leukemia 2 (MKL2), fused to the S10 or S11 GFP fragment (protein, UniProt P59759 1-1080)
chain: MIDSSKKQPQGFPEILTAEDFEPFKEKECLEGSNQKSLKEVLQLRLQQRRTREQLVDQGIMPPLKSPAAFHEQIKSLERARTENFLKHKIRSRPDRSELVRMHILEETFAEPSLQATQMKLKRARLADDLNEKIAQRPGPMELVEKNILPVDSSVKEAIIGVVKEDYPHTHGEFSFDEDSSDALSPDQPASQESQGSAASPSEPKVSASPPPVTASTPAQFTSVSPAVPEFLKTPLTADQPPTRSTAPVLPTNTVSSAKSGPMLVKQSHPKNPNDKHRSKKCKDPKPRVKKLKYHQYIPPNQKGEKSEPQMDSNYARLLQQQQLFLQLQILSQQQQQQQQQHYNYQTILPAPIKTDKNSSSGSNSGSSSSMPARRPGPLPSSLDDLKVSELKTELKLRGLPVSGTKPDLIERLKPYQEVTSSNLATGSIVAVSSATIVTSNPEVTVALPVTTLHNAVTSSVSTFKADLALPATSSVPHVENAHSPLPISPSPSEQSSLSTDDTNMTDTFTEIMTMMSPSQLLCSSPLRVVSHDDSLSPSSSTLSTLELDAAEKDRKLQEKEKQIEELKRKLEQEQKLVEVLKMQLEVEKRGQQRPPDPQPSDPPHPFNTSDPKHGSVGSSIKDEASLPDCSSPQQPITVPGHSVGQPISTGSQTLVAKKTVVVKQEVPMAQAEQQNVVSQFYLSSQGQPPALVAQPQALLTTQTTQLLLPVSIQGSNVTSVQLPVGSLQLQTPAQGRVQAQPHVAAATQVPAAALPSALTSALPQKQEAFPQHVLGQPQPVRKVFTNSAPNTVLQYQRQPGPTNQQPFVSKTSNPALQSRTAPLAPLQNGPSLASKPSSPPPPQQFVVQHSLFATPITKTKDPPRYEEAIKQTRSTQPALPEVSSVHSQQMDDLFDILIKSGEISFPIKEEPSPISKMKPVTASITTMPVNTVVSRPPPQVQIAPPVSLEPVNSLSASLENQLEAFLDGTLPSATDTGPLQNSSEDRESFSLIEDLQNDLLSHSSMLYQSHSPMETSEAQLVSGTPCLSLDLSDSNLDNMEWLDITMPTTSSGLTPLSTTAPSMFSADFLDPQDLPLPWD
As for B3, the binding entry in assay [3] is “no binding”; in assay [1] it was “binds”.
